Laboratory results from PubChem BioAssay AID330 (DTP/NCI, 2004).
The list does not hold the whole screen: it gathers tests that were run many times, whatever their T/C, doses with no T/C, and many T/C values between a quarter and a half above the control. Other doses and runs of a compound stand elsewhere. T/C: endpoint of the treated group in % of that of the vehicle group. Some doses have a count of surviving animals in place of a T/C: the source holds a T/C of zero for them, seemingly a mark for toxic or unscored doses. Some survivor counts are full or nearly so, which does not show that the dose was tolerated: survival well below the control is almost never listed, so the zero probably covers shortened survival too. Counts of survivors are from the toxicity check (mostly the fifth day) where no day follows; animals may have died later. Schedule codes are those of the source, taken here to give the interval after Q, in days (D) or hours (H), and the number of doses after X. Some molecules as drawn cover several salts, stereoisomers or complexes of the source; a dose is that of the sample tested. For survival time, the PubChem record calls one and a half times the control and up active, and a quarter to a half above the control has no call in these data; cut-offs in other NCI protocols can differ. Some T/C values are followed by the survivors on the day toxicity was checked, most often the fifth; without a count, all were alive then. Some entries were tested several times; the values are given in rising order.

Tested on: P388 leukemia ip, CD2F1 mice, survival T/C
Test: NCI In Vivo Anticancer Drug Screen. Data for tumor model P388 Leukemia (intraperitoneal) in CD2F1 (CDF1) mice
Settings: T/C endpoint: median survival time, higher T/C = longer survival
[1] = dose: 25.0 mg/kg/injection, schedule: Q01DX005 (ip), vehicle: saline
[2] = dose: 50.0 mg/kg/injection, schedule: Q01DX005 (ip), vehicle: saline
[3] = dose: 100.0 mg/kg/injection, schedule: Q01DX005 (ip), vehicle: saline
[4] = dose: 200.0 mg/kg/injection, schedule: Q01DX005 (ip), vehicle: saline
[5] = dose: 100.0 mg/kg/injection, schedule: Q01DX005 (ip), vehicle: Klucel (hydroxypropylcellulose) (HPC)
[6] = dose: 200.0 mg/kg/injection, schedule: Q01DX009 (ip), vehicle: Klucel (hydroxypropylcellulose) (HPC)
[7] = dose: 200.0 mg/kg/injection, schedule: Q01DX005 (ip), vehicle: Klucel (hydroxypropylcellulose) (HPC)
[8] = dose: 200.0 mg/kg/injection, schedule: Q01DX005 (ip), vehicle: saline with Tween-80
[9] = dose: 100.0 mg/kg/injection, schedule: Q01DX009 (ip), vehicle: saline with Tween-80
[10] = dose: 200.0 mg/kg/injection, schedule: Q01DX009 (ip), vehicle: saline with Tween-80

CN=C(c1ccc(NC(=O)c2ccc(C(=O)Nc3ccc(C(=NC)N4CCOCC4)cc3)c(Cl)c2)cc1)N1CCOCC1 was tested, and the survivor count (dose: 1.56 mg/kg/injection, schedule: Q01DX005 (ip), vehicle: saline) was 2 of 6, the survivor count (dose: 3.12 mg/kg/injection, schedule: Q01DX005 (ip), vehicle: saline) was 0 of 6 and the survivor count (dose: 6.25 mg/kg/injection, schedule: Q01DX005 (ip), vehicle: saline) was 0 of 6. For the same compound, the survivor count (dose: 12.5 mg/kg/injection, schedule: Q01DX005 (ip), vehicle: saline) was 0 of 6, the survivor count [1] was 0 of 6 and the survivor count [2] was 0 of 6. For the same compound, the survivor count [3] was 0 of 6 and the survivor count [4] was 0 of 6.

In the case of CC1CN=C(CCc2ccc(NC(=O)c3ccc(C(=O)Nc4ccc(CCC5=NCC(C)N5)cc4)cc3)cc2)N1 (stereo unspecified), the T/C [5] is reported as 125 % of control and the survivor count (dose: 400.0 mg/kg/injection, schedule: Q01DX005 (ip), vehicle: Klucel (hydroxypropylcellulose) (HPC)) is reported as 4 of 6.

With CN(Cc1ccccc1)CC(CCC1OCCO1)(CCC1OCCO1)c1ccccc1 the survivor count [6] was 6 of 6.

In the case of COC(=O)/C=C1/C(=O)N(C)c2ccccc21, the survivor count (dose: 12.5 mg/kg/injection, schedule: Q01DX009 (ip), vehicle: saline with Tween-80) is reported as 6 of 6.

In the case of O=C1NN(c2ccccc2)C(=O)/C1=C\c1ccccc1O, the survivor count (dose: 87.5 mg/kg/injection, schedule: Q01DX009 (ip), vehicle: Klucel (hydroxypropylcellulose) (HPC)) is reported as 4 of 6.

With O=C(CSc1nnc(CSc2ccc(Cl)cc2)n1-c1ccccc1)NC(=O)Nc1ccccc1 the survivor count (dose: 60.0 mg/kg/injection, schedule: Q01DX005 (ip), vehicle: saline with Tween-80) was 6 of 6 and the survivor count (dose: 120.0 mg/kg/injection, schedule: Q01DX005 (ip), vehicle: saline with Tween-80) was 6 of 6.

In the case of Cc1ccc(C)c(C(O)C2CC2)c1 (stereo unspecified), the survivor count (dose: 400.0 mg/kg/injection, schedule: Q04DX003 (ip), vehicle: saline with Tween-80) is reported as 1 of 6.

For CCn1c(C)nc([N+](=O)[O-])c1Sc1ncn[nH]1, the T/C [5] was 125 % of control and the T/C [7] was 131 [4 of 6 alive] and 137 % of control [4 of 6 alive].

With CSc1nc(C(N)=O)cc(=O)[nH]1 the survivor count (dose: 50.0 mg/kg/injection, schedule: Q01DX009 (ip), vehicle: Klucel (hydroxypropylcellulose) (HPC)) was 3 of 6, the survivor count (dose: 100.0 mg/kg/injection, schedule: Q01DX009 (ip), vehicle: Klucel (hydroxypropylcellulose) (HPC)) was 2 of 6 and the survivor count [6] was 1 of 6.

In the case of c1ccc(P(CCNCCP(c2ccccc2)c2ccccc2)c2ccccc2)cc1, the T/C (dose: 50.0 mg/kg/injection, schedule: Q01DX005 (ip), vehicle: saline with Tween-80) is reported as 133 % of control, the T/C (dose: 100.0 mg/kg/injection, schedule: Q01DX005 (ip), vehicle: saline with Tween-80) is reported as 135 % of control [5 of 6 alive] and the T/C [8] is reported as 129 % of control. The survivor count [8] was 2 of 6 and the survivor count (dose: 400.0 mg/kg/injection, schedule: Q01DX005 (ip), vehicle: saline with Tween-80) was 1 of 6.

CC(SC(C)C(=O)O)C(=O)O (stereo unspecified) was tested, and the survivor count (dose: 400.0 mg/kg/injection, schedule: Q04DX002 (ip), vehicle: saline) was 3 of 6.

In the case of CCNc1ccc2ccccc2c1N=Nc1ccc(N=Nc2ccccc2)cc1, the survivor count [9] is reported as 6 of 6.

C=C(Cl)C(=NC(C)(C)C)Nc1ccccc1C was tested, and the T/C (dose: 12.5 mg/kg/injection, schedule: Q01DX005 (ip), vehicle: Klucel (hydroxypropylcellulose) (HPC)) was 127 % of control, the T/C (dose: 25.0 mg/kg/injection, schedule: Q01DX005 (ip), vehicle: Klucel (hydroxypropylcellulose) (HPC)) was 132 % of control and the survivor count [1] was 0 of 6. The survivor count (dose: 50.0 mg/kg/injection, schedule: Q01DX005 (ip), vehicle: Klucel (hydroxypropylcellulose) (HPC)) was 3 of 6, the survivor count [2] was 0 of 6 and the survivor count [5] was 0 of 6. The survivor count [3] was 0 of 6, the survivor count [7] was 0 of 6 and the survivor count [4] was 0 of 6.

With CC(NNC(=S)N1CCN(c2ccccn2)CC1)c1ccccn1 (stereo unspecified) the survivor count [5] was 6 of 6 and the survivor count [7] was 2 of 6.

In the case of CCCCCCCCCCCCCCCCCCCCC(C(=O)OCC)S(=O)(=O)O (stereo unspecified), the survivor count [6] is reported as 3 of 6.

With CC1(C)COC(c2ccc(C(C)(C)C)cc2)=N1 the survivor count (dose: 50.0 mg/kg/injection, schedule: Q01DX009 (ip), vehicle: saline with Tween-80) was 0 of 6, the survivor count [9] was 0 of 6 and the survivor count [10] was 0 of 6.

With c1ccc(-c2nc3ccccc3n2CCc2ccncc2)nc1 the survivor count [7] was 0 of 6.

N#Cn1c2ccccc2c(=N)c2ccccc21 was tested, and the survivor count (dose: 240.0 mg/kg/injection, schedule: Q01DX005 (ip), vehicle: saline with Tween-80) was 0 of 6.

CCCC(O)CNCc1ccnc2ccc(OC)cc12 (stereo unspecified) was tested, and the survivor count [4] was 0 of 5.

With C=C(C[N+](C)(C)C)c1ccc([N+](=O)[O-])cc1 the survivor count [5] was 0 of 5 and the survivor count [7] was 0 of 5.

With COc1ccc2c(c1)C1(C)CCN(C)CC(C1)C2O (stereo unspecified) the survivor count [10] was 3 of 6.

With O=[N+]([O-])c1ccc(SSc2ccc([N+](=O)[O-])s2)s1 the survivor count (dose: 200.0 mg/kg/injection, schedule: Q01DX001 (ip), vehicle: Klucel (hydroxypropylcellulose) (HPC)) was 3 of 6 and the survivor count (dose: 400.0 mg/kg/injection, schedule: Q01DX001 (ip), vehicle: Klucel (hydroxypropylcellulose) (HPC)) was 0 of 6.

For Cc1ccc2c(C(=O)O)cc(N)cc2n1, the survivor count (dose: 15.0 mg/kg/injection, schedule: Q01DX005 (ip), vehicle: Klucel (hydroxypropylcellulose) (HPC)) was 4 of 6, the survivor count (dose: 30.0 mg/kg/injection, schedule: Q01DX005 (ip), vehicle: Klucel (hydroxypropylcellulose) (HPC)) was 1 of 6 and the survivor count (dose: 60.0 mg/kg/injection, schedule: Q01DX005 (ip), vehicle: Klucel (hydroxypropylcellulose) (HPC)) was 0 of 6. The survivor count (dose: 120.0 mg/kg/injection, schedule: Q01DX005 (ip), vehicle: Klucel (hydroxypropylcellulose) (HPC)) was 0 of 6 and the survivor count (dose: 240.0 mg/kg/injection, schedule: Q01DX005 (ip), vehicle: Klucel (hydroxypropylcellulose) (HPC)) was 0 of 6.
